# Experimental data from the supplement of paper PMC12889115.
# Some of the results follow. Values are raw readings; no control value is given beside them.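 In the initial screen, polymyxin B was used at a concentration that permeabilizes Salmonella's outer membrane but not its inner membrane. Maximum growth was set by DMSO wells with or without polymyxin B. Since plates varied, data were ranked per plate, and compounds giving the lowest OD600 advanced as hits.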
# Tested on: Salmonella enterica serovar Typhimurium SL1344
# Experiment: bacterial growth OD600 after 18 h with compound and polymyxin B; higher = more bacterial growth (less inhibition)
# Conditions: 50 µM, Mueller-Hinton broth
SMILES,bacterial growth OD600 (polymyxin B 0.75 µg/mL),bacterial growth OD600 (polymyxin B 1 µg/mL)
COc1ccc(F)c(CC2(CCC(=O)N(C)Cc3cccc(-n4nc(C)cc4C)c3)CCC(=O)N2)c1 (configuration not stated),0.703,–
COC(=O)c1cc(CNC(=O)c2ccco2)cc(NS(=O)(=O)c2cccc(C(F)(F)F)c2)c1,0.625,–
CCn1cc(CN2C[C@H]3OC(=O)N(Cc4ccccc4OC)[C@H]3C2)cn1,0.789,–
C=CCOc1cccc(C(=O)NC2CCCc3nc(N(C)C)ncc32)c1 (configuration not stated),0.731,–
CC(C(=O)NCc1cccnc1Oc1ccccc1)n1cccn1 (configuration not stated),–,0.988
O=C(NC1CCCC1)c1ccc(N2CCC(NCCc3cccc(F)c3)CC2)cc1,0.021,–
COc1ccc(CN2CCC(n3nccc3NC(=O)CC(C)C)CC2)c(F)c1,0.934,–
COc1ccc(CCN2CC(NC(=O)Cc3ccccc3C)CC2=O)cc1 (configuration not stated),–,0.898
COc1ccc(Cl)cc1NC(=O)CCC1CCCN(C(=O)Cn2nc(C)cc2C)C1 (configuration not stated),–,0.779
Cc1oc(-c2ccc(NC(=O)Cc3ccccc3)cc2)nc1CNC(=O)CCC(C)C,0.791,–
Cc1cc(C(=O)NC(C)c2cnc(-c3ccncc3)nc2C)n[nH]1 (configuration not stated),–,0.974
Oc1ccc(CN2CC[C@@H](N3CCN(c4ccccn4)CC3)[C@H](O)C2)cc1Cl,–,0.908
COC(=O)CCC(=O)NC1CC(=O)N(Cc2cccc3ccccc23)C1 (configuration not stated),–,0.949
COc1ccc(S(=O)(=O)N2CCC(CO)(Cc3ccccc3C(F)(F)F)CC2)cc1,–,0.811
Cc1nonc1N1CCN(Cc2nc(-c3cccc(C(F)(F)F)c3)oc2C)CC1,–,1.04
COc1ccccc1CN1C(=O)O[C@@H]2CN(C(=O)NCc3ccco3)C[C@@H]21,0.803,–

SMILES,bacterial growth OD600 (polymyxin B 0.75 µg/mL),bacterial growth OD600 (polymyxin B 1 µg/mL)
Cn1ccnc1CN1CCCC(CCc2ccccc2F)C1 (configuration not stated),0.989,–
COc1ccc(N2C(=O)CN(C(=O)c3ccccc3N(C)C)CC2(C)C)cc1,0.855,–
O=C(c1ccc2ncccc2c1)N1CCc2[nH]nc(-c3cccc(F)c3)c2C1,0.007,–
CCN1CCN(C2(C(=O)NC(C)Cc3ncccc3C)Cc3ccccc3C2)CC1 (configuration not stated),0.775,–
Cc1cccc(CN2CCC(n3nccc3NC(=O)c3ccccc3C)CC2)c1,–,0.904
CCOC(=O)CNC(=O)N1CCCC(N2CCN(Cc3ccc4c(c3)OCO4)CC2)C1 (configuration not stated),–,0.922
CCN(CCn1cccn1)c1ccc(-c2nc(COC)no2)cn1,0.856,–
CSc1ncc(CN2CC[C@@H](N3CCN(CCc4ccccc4)CC3)[C@H](O)C2)cn1,–,1.24
O=C(Cc1ccc(N2CCC(NCc3cnn(-c4ccccc4)n3)CC2)cc1)N1CCC(O)CC1,0.662,–
CCN1CC(CN(C)Cc2cn(-c3cccc(C)c3)nc2-c2cccc(F)c2)CC1=O (configuration not stated),–,0.027
COC(=O)c1ccccc1NC(=O)N1CCCC(Nc2ccc(OC)cc2)C1 (configuration not stated),–,0.915
COC(=O)c1cccc(C(=O)N2CCCC(C(=O)c3cccc4ccccc34)C2)c1 (configuration not stated),–,0.364
Cc1cccc(CNC(=O)C2CC23CCN(C(=O)COc2ccccc2Cl)CC3)n1 (configuration not stated),0.931,–
O=C(CCc1cccs1)N1CCc2[nH]nc(-c3cccc(F)c3)c2C1,0.577,–
COc1ccc2c(c1)CCc1cnc(-n3ncc(C(=O)N(C)CC4COCCO4)c3C3CC3)nc1-2 (configuration not stated),0.871,–
Cc1cc(C(=O)N2CCC(n3nccc3NC(=O)c3ccc4c(c3)OCO4)CC2)c(C)o1,–,0.928

# Single values from the list.
# `CCN1CC(CN(C)Cc2cn(-c3cccc(C)c3)nc2-c2cccc(F)c2)CC1=O` (configuration not stated) | bacterial growth OD600 (polymyxin B 1 µg/mL): 0.027
# `O=C(c1ccc2ncccc2c1)N1CCc2[nH]nc(-c3cccc(F)c3)c2C1` | bacterial growth OD600 (polymyxin B 0.75 µg/mL): 0.007
